US11931466B2, “Process for the preparation of drug loaded microparticles” (FERRING B.V., priority 2015, dated 2024)
Counter-ions that a name gives are not always drawn.

Assay: physchem
Details: 20 °C, organic solvent or mixture

Question: For COc1cc2c(cc1OC)C(=O)C(CC1CCN(Cc3ccccc3)CC1)C2 (stereo not shown) [Donepezil hydrochloride], which solubility is on record?
Answer: 350 mg/mL
